No constants are given. Whether binding was seen depends on the method and setting. Some entries that bind do so weakly or less than the wild type.
Assays:
[1] = target: human A-FABP recombinant protein (human) (UniProt P15090); assay: ELISA, FABP coated on plate, 6H2 at 1 µg/mL, OD450
[2] = target: T1, mouse A-FABP recombinant protein (mouse) (UniProt P04117); assay: ELISA, FABP coated on plate, 6H2 at 1 µg/mL, OD450
T1 sequence (looked up): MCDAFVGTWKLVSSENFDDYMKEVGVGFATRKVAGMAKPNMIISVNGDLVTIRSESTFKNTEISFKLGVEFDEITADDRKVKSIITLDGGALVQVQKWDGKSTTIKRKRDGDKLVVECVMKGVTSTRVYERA

[3] = target: T1, mouse A-FABP recombinant protein (mouse); assay: ELISA of serum A-FABP in MCAO mice treated with 6H2 or mouse IgG (binding inferred)

Measured: binding

B1: A-FABP neutralizing monoclonal antibody 6H2 (antibody, V domains shown)
VH: VKLQESGPELVKPGASVKIPCKASGYTFTDYNMDWVRQSRGKSLEWIGDINPYNGDTIYNQNFKGKATLTVDKSSTTAYLELRSLTSEDTAVYYCASGYGFWGQGTTVTVSS
VL: DIVMTQAPLSLPVSLGAQASISCRSSQSLVYINGNTYLHWYLQKPGQSPKLLIYKVSNRFSGVPDRFSGSGSGTDFTLKISRVEAEDLGVYFCSQSTHVPYTFGGGTKLEIK
binds: all assays above

— patent US20240166733A1
